Experimental data from article PMC10878145.
Results are given in words; binding and its absence hold for the method and conditions named. Binding seen in cells or lysates may run through a third protein. Some results given as binding are weak or reduced against the parent protein; the word gives no strength.

Biological target: T1, PDK1 (UniProt O15530)
T1 sequence: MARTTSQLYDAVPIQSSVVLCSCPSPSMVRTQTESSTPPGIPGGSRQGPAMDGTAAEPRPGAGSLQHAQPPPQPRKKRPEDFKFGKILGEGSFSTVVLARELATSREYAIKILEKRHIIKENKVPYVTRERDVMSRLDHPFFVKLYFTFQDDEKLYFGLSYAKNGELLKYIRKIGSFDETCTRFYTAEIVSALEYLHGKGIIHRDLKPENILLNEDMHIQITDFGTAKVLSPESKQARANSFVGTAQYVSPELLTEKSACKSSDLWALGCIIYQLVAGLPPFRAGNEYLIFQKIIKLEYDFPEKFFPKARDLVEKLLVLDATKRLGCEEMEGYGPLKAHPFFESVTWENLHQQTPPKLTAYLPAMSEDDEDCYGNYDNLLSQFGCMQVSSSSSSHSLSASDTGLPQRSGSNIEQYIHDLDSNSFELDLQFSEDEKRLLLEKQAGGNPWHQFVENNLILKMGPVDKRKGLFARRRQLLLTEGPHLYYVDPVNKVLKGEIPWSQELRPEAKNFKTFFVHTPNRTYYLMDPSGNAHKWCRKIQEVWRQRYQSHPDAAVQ
Assay: co-IP; exogenous co-IP of transfected proteins in HEK-293T cells; lysis buffer 150 mM NaCl, 150 mM Tris, 0.4% NP-40, pH 7.4; antibody 4-6 hrs at 4 °C, protein A magnetic beads 2 hrs at 4 °C; immunoblot; some experiments quantitative with UPP1-WT or UPP1-R94A co-overexpressed, one with SC79

binding: binds
B1: UPP1-R94A (mutant UPP1) (enzyme, UniProt Q16831 1-310)
chain: MAATGANAEKAESHNDCPVRLLNPNIAKMKEDILYHFNLTTSRHNFPALFGDVKFVCVGGSPSRMKAFIRCVGAELGLDCPGRDYPNICAGTDAYAMYKVGPVLSVSHGMGIPSISIMLHELIKLLYYARCSNVTIIRIGTSGGIGLEPGTVVITEQAVDTCFKAEFEQIVLGKRVIRKTDLNKKLVQELLLCSAELSEFTTVVGNTMCTLDFYEGQGRLDGALCSYTEKDKQAYLEAAYAAGVRNIEMESSVFAAMCSACGLQAAVVCVTLLNRLEGDQISSPRNVLSEYQQRPQRLVSYFIKKKLSKA
